Experimental data reported in the supplement of paper PMC4604168 (melanoma cell lines).
This is one part of the list. Repeats are few or missing, and single values can be far off.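 Imaging used 1,536-well plates; nuclei positive for cleaved PARP by antibody were divided by total DNA-stained nuclei to yield the apoptosis fraction. Doses for screening kept most cells viable, and cell lines differ markedly in resting and induced cleaved-PARP levels.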

Legend:
Test in all cases: cleaved PARP positive nuclei fraction relative to DMSO control; melanoma cells; higher = more apoptosis
Conditions in all cases: library dose: low library concentration; 72 h
MZ2-MEL = test system: MZ2-MEL
MeWo = test system: MeWo
RPMI7951 = test system: RPMI7951
RVH-421 = test system: RVH-421
SkMel28 = test system: SkMel28
SkMel2 = test system: SkMel2
SkMel30 = test system: SkMel30
UACC62 = test system: UACC62

Compound	cleaved PARP positive nuclei fraction (MZ2-MEL) [%]	cleaved PARP positive nuclei fraction (MeWo) [%]	cleaved PARP positive nuclei fraction (RPMI7951) [%]	cleaved PARP positive nuclei fraction (RVH-421) [%]	cleaved PARP positive nuclei fraction (SkMel28) [%]	cleaved PARP positive nuclei fraction (SkMel2) [%]	cleaved PARP positive nuclei fraction (SkMel30) [%]	cleaved PARP positive nuclei fraction (UACC62) [%]
Cn1c(=O)n(-c2ccc(C(C)(C)C#N)cc2)c2c3cc(-c4cnc5ccccc5c4)ccc3ncc21 + C[As](C)SC[C@H](NC(=O)CC[C@H](N)C(=O)O)C(=O)NCC(=O)O [Darinaparsin] (first compound 0.004 µM, partner dose 0.4 µM)	103	581	177	141	59	128	119	169
C[C@@H](Oc1cc(-c2cnn(C3CCNCC3)c2)cnc1N)c1c(Cl)ccc(F)c1Cl [Crizotinib] + C[As](C)SC[C@H](NC(=O)CC[C@H](N)C(=O)O)C(=O)NCC(=O)O [Darinaparsin] (first compound 0.2 µM, partner dose 0.4 µM)	35.6	29.5	66.5	95.1	75.2	87.5	22.7	53.3
O=C(/C=C/c1cccnc1)NCCCCC1CCN(C(=O)c2ccccc2)CC1 + N.N.[Cl][Pt][Cl] [cisplatin] (first compound 0.01 µM, partner dose 1.6 µM)	390	68.8	30.3	221	147	2960	36.7	38.5
COc1ccc(C2=N[C@@H](c3ccc(Cl)cc3)[C@@H](c3ccc(Cl)cc3)N2C(=O)N2CCNC(=O)C2)c(OC(C)C)c1 [Nutlin-3] + C[As](C)SC[C@H](NC(=O)CC[C@H](N)C(=O)O)C(=O)NCC(=O)O [Darinaparsin] (first compound 0.1 µM, partner dose 0.4 µM)	60.5	379	139	177	49.3	45.4	167	112
CN(c1ncccc1CNc1nc(Nc2ccc3c(c2)CC(=O)N3)ncc1C(F)(F)F)S(C)(=O)=O + C[As](C)SC[C@H](NC(=O)CC[C@H](N)C(=O)O)C(=O)NCC(=O)O [Darinaparsin] (first compound 0.08 µM, partner dose 0.4 µM)	195	109	127	138	87.1	193	110	199
N.N.[Cl][Pt][Cl] [cisplatin] + COc1ccc(Cl)c(Nc2nc3ccccc3nc2NS(=O)(=O)c2cccc(NC(=O)C(C)(C)N)c2)c1 [XL147] (first compound 1.6 µM, partner dose 0.8 µM)	89	185	64.8	122	187	80.6	103	150
Nc1ccn([C@@H]2O[C@H](CO)[C@@H](O)C2(F)F)c(=O)n1 [gemcitabine] + C[As](C)SC[C@H](NC(=O)CC[C@H](N)C(=O)O)C(=O)NCC(=O)O [Darinaparsin] (first compound 0.0004 µM, partner dose 0.4 µM)	187	115	155	58.3	41.6	135	81.7	66.2
O=C(/C=C/c1cccnc1)NCCCCC1CCN(C(=O)c2ccccc2)CC1 + C[As](C)SC[C@H](NC(=O)CC[C@H](N)C(=O)O)C(=O)NCC(=O)O [Darinaparsin] (first compound 0.01 µM, partner dose 0.4 µM)	384	128	66.5	275	40.8	878	67.6	45.4
Cn1cc(C2=C(c3cn(C4CCN(Cc5ccccn5)CC4)c4ccccc34)C(=O)NC2=O)c2ccccc21 [Enzastaurin] + O=C(O)c1ccc2c(c1)nc(Nc1cccc(Cl)c1)c1ccncc12 [CX4945] (first compound 0.8 µM, partner dose 0.4 µM)	60	86.2	164	151	70	225	196	125
Cn1cnc2c(F)c(Nc3ccc(Br)cc3Cl)c(C(=O)NOCCO)cc21 [selumetinib] + Cn1cc(C2=C(c3cn(C4CCN(Cc5ccccn5)CC4)c4ccccc34)C(=O)NC2=O)c2ccccc21 [Enzastaurin] (first compound 0.015 µM, partner dose 0.8 µM)	162	48.7	57.2	86.5	78.1	133	47.9	81.9
N.N.[Cl][Pt][Cl] [cisplatin] + Nc1ccn([C@@H]2O[C@H](CO)[C@@H](O)C2(F)F)c(=O)n1 [gemcitabine] (first compound 1.6 µM, partner dose 0.0004 µM)	80.4	92.1	75.3	182	87.9	54.3	90.7	36.3
Cn1cc(C2=C(c3cn(C4CCN(Cc5ccccn5)CC4)c4ccccc34)C(=O)NC2=O)c2ccccc21 [Enzastaurin] + OCc1c[nH]c2ccccc12 [Indole-3-carbinol] (first compound 0.8 µM, partner dose 0.8 µM)	47.1	42.2	41.8	95.7	85.7	117	75.4	175
Cn1cc(C2=C(c3cn(C4CCN(Cc5ccccn5)CC4)c4ccccc34)C(=O)NC2=O)c2ccccc21 [Enzastaurin] + Nc1ccn([C@@H]2O[C@H](CO)[C@@H](O)C2(F)F)c(=O)n1 [gemcitabine] (first compound 0.8 µM, partner dose 0.0004 µM)	60.9	137	47.6	194	172	105	56.5	165
CN(c1ncccc1CNc1nc(Nc2ccc3c(c2)CC(=O)N3)ncc1C(F)(F)F)S(C)(=O)=O + N.N.[Cl][Pt][Cl] [cisplatin] (first compound 0.08 µM, partner dose 1.6 µM)	35.9	93	117	55.6	97.4	109	96.3	95.7
N.N.[Cl][Pt][Cl] [cisplatin] + OCc1c[nH]c2ccccc12 [Indole-3-carbinol] (first compound 1.6 µM, partner dose 0.8 µM)	267	114	84.1	48.4	40.8	36	123	33.7
N.N.[Cl][Pt][Cl] [cisplatin] + C[C@]1(c2nc3c(C(N)=O)cccc3[nH]2)CCCN1 [Veliparib] (first compound 1.6 µM, partner dose 1.4 µM)	81.4	74.6	195	94.5	93	120	123	74.8
CC[C@]1(O)C[C@H]2CN(CCc3c([nH]c4ccccc34)[C@@](C(=O)OC)(c3cc4c(cc3OC)N(C=O)[C@H]3[C@@](O)(C(=O)OC)[C@H](OC(C)=O)[C@]5(CC)C=CCN6CC[C@]43[C@@H]65)C2)C1 [vincristine] + Cn1cc(C2=C(c3cn(C4CCN(Cc5ccccn5)CC4)c4ccccc34)C(=O)NC2=O)c2ccccc21 [Enzastaurin] (first compound 0.0001 µM, partner dose 0.8 µM)	168	90.3	116	145	79	28.2	57.9	198
N.N.[Cl][Pt][Cl] [cisplatin] + CNC(=O)c1cc(Oc2ccc(NC(=O)Nc3ccc(Cl)c(C(F)(F)F)c3)cc2)ccn1 [sorafenib] (first compound 1.6 µM, partner dose 0.4 µM)	108	141	110	86.5	169	116	139	41.8
C[As](C)SC[C@H](NC(=O)CC[C@H](N)C(=O)O)C(=O)NCC(=O)O [Darinaparsin] + Cn1c(Nc2ccc(C(F)(F)F)cc2)nc2cc(Oc3ccnc(-c4ncc(C(F)(F)F)[nH]4)c3)ccc21 [CHIR265] (first compound 0.4 µM, partner dose 0.08 µM)	81.6	118	83.6	262	149	87.4	118	233
Cn1cc(C2=C(c3cn(C4CCN(Cc5ccccn5)CC4)c4ccccc34)C(=O)NC2=O)c2ccccc21 [Enzastaurin] + C[As](C)SC[C@H](NC(=O)CC[C@H](N)C(=O)O)C(=O)NCC(=O)O [Darinaparsin] (first compound 0.8 µM, partner dose 0.4 µM)	154	36.6	30.1	115	72.9	358	80.6	106
C[As](C)SC[C@H](NC(=O)CC[C@H](N)C(=O)O)C(=O)NCC(=O)O [Darinaparsin] + COCC[n+]1c2c(n(Cc3cnccn3)c1C)C(=O)c1ccccc1C2=O [YM155] (first compound 0.4 µM, partner dose 0.0004 µM)	75.8	180	62.5	120	104	146	66.5	134
N.N.[Cl][Pt][Cl] [cisplatin] + C[C@@H](Oc1cc(-c2cnn(C3CCNCC3)c2)cnc1N)c1c(Cl)ccc(F)c1Cl [Crizotinib] (first compound 1.6 µM, partner dose 0.2 µM)	165	59.9	47.2	58.1	71	136	124	75.9
Cn1cc(C2=C(c3cn(C4CCN(Cc5ccccn5)CC4)c4ccccc34)C(=O)NC2=O)c2ccccc21 [Enzastaurin] + CCCS(=O)(=O)Nc1ccc(F)c(C(=O)c2c[nH]c3ncc(Cl)cc23)c1F [PLX4720] (first compound 0.8 µM, partner dose 0.08 µM)	51.7	47.6	175	155	43.6	416	64.2	289

Full records, quoted from the list. Values in the order: cleaved PARP positive nuclei fraction (MZ2-MEL) [%]	cleaved PARP positive nuclei fraction (MeWo) [%]	cleaved PARP positive nuclei fraction (RPMI7951) [%]	cleaved PARP positive nuclei fraction (RVH-421) [%]	cleaved PARP positive nuclei fraction (SkMel28) [%]	cleaved PARP positive nuclei fraction (SkMel2) [%]	cleaved PARP positive nuclei fraction (SkMel30) [%]	cleaved PARP positive nuclei fraction (UACC62) [%]
CC[C@]1(O)C[C@H]2CN(CCc3c([nH]c4ccccc34)[C@@](C(=O)OC)(c3cc4c(cc3OC)N(C=O)[C@H]3[C@@](O)(C(=O)OC)[C@H](OC(C)=O)[C@]5(CC)C=CCN6CC[C@]43[C@@H]65)C2)C1 [vincristine] + Cn1cc(C2=C(c3cn(C4CCN(Cc5ccccn5)CC4)c4ccccc34)C(=O)NC2=O)c2ccccc21 [Enzastaurin] (first compound 0.0001 µM, partner dose 0.8 µM) is listed as 168	90.3	116	145	79	28.2	57.9	198
O=C(/C=C/c1cccnc1)NCCCCC1CCN(C(=O)c2ccccc2)CC1 + N.N.[Cl][Pt][Cl] [cisplatin] (first compound 0.01 µM, partner dose 1.6 µM) is listed as 390	68.8	30.3	221	147	2960	36.7	38.5
